Source: PubChem BioAssay AID2685 (National Center for Advancing Translational Sciences (NCATS), 2010)
Some of the results follow. These are further read-outs of the screen, such as a control signal, another cell line or another target. No call is given for them. The list favours compounds with an active or inconclusive main result. The note in brackets gives the kind of curve behind each potency; many fits are weak.

Assay: qHTS Assay for Lipid Storage Modulators in Drosophila S3 Cells;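 for cell number change: cells counted by Cell Tracker Red CMTPX staining in the red channel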
Conditions: BODIPY lipid droplet fluorescence, 18-24 h; for cell number change: measured here: cell count max response, cells fed with added oleic acid
Summary of the method: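 Drosophila S3 cells got compounds at several concentrations plus oleic acid (400 uM solution). Laser-scanning cytometry with 488 nm excitation read lipid droplets at 500-530 nm and cells at 575-640 nm. Percent activity was relative to 20 uM Triacsin C.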

[1] = measured here: lipid fluorescence (Fed channel) AC50, cells fed with added oleic acid
[2] = measured here: cell number channel AC50, cells fed with added oleic acid

Compound	cell number change	AC50 [1]	AC50 [2]
CC1=CC(=O)C=C(C)C1=NOC(=O)c1cccc([N+](=O)[O-])c1	2.35%	0.00461 µM [rising, full curve, poor fit]	–
O=C(NCCc1c[nH]c2ccc(Cl)cc12)c1cccnc1	–	2.31 µM [rising, partial curve, poor fit]	1.46 µM [rising, partial curve]
CCOCCCNc1ccc(-c2ccccc2)nn1	20.3%	2.06 µM [rising, partial curve]	–
COc1cc(OC)c(S(=O)(=O)N2CCN(C(=O)c3ccccc3F)CC2)cc1NC(C)=O	21.6%	7.31 µM [rising, partial curve]	–
COc1ccc(CCNC(=O)COC(=O)/C=C/c2ccc(OCC#N)c(OC)c2)cc1OC	-79.2%	2.31 µM [falling, full curve]	10.3 µM [falling, partial curve]
COC(=O)CCC(=O)NC1CC(C)(C)Cc2c1cnn2-c1ccc(F)cc1 (configuration not stated)	-31.8%	–	5.8 µM [falling, partial curve]
CC(C)(C)c1cc(Cl)ccc1OCCOCCN1CCCC1	-22.6%	–	–
COc1ccc(C2=NS(=O)(=O)N(C)C(C(=O)Nc3ccc(OC)c(OC)c3)=C2)cc1	-1.44%	0.082 µM [rising, full curve, poor fit]	–
CCOC(=O)c1sc2nc(SC)nc(-c3ccccc3)c2c1N	-11%	13 µM [rising, partial curve]	–
COC(=O)CN1C(=O)[C@H]2[C@@H](c3ccc(C)o3)N3C(=O)CN(CCO)C(=O)[C@@]3(Cc3ccccc3)[C@H]2C1=O	-12.6%	–	–
Cc1nc2ccccc2nc1OCc1cccc([N+](=O)[O-])c1	7.38%	0.103 µM [falling, full curve, poor fit]	0.103 µM [falling, full curve, poor fit]
CCOC(=O)c1c(NC(=O)CSc2ncccn2)sc2c1CC(C)(C)NC2(C)C	28.1%	2.91 µM [rising, full curve]	–
CC(C)Oc1ccc(C(=O)NCCCNC(=O)c2cccnc2)cc1	–	14.6 µM [falling, partial curve]	–
CCOC(=O)c1ccc(NC(=O)CSc2nnc(COc3ccccc3OC)n2C)cc1	–	–	0.13 µM [falling, full curve, poor fit]
O=C1NC(=O)c2c(NC(=O)C3CCCO3)cccc21 (configuration not stated)	-22.9%	0.651 µM [falling, full curve, poor fit]	0.00461 µM [falling, full curve, poor fit]
Cc1cc(C)n(-c2nncc(-c3ccccc3)n2)n1	-26.6%	–	1.03 µM [falling, single point]
Cc1ccc(CC(=O)O/N=C(\N)c2ccncc2)cc1	-11.8%	0.731 µM [rising, partial curve]	–
CC1CCCCN1c1nnc(NC(=O)Cn2c(=O)oc3ccccc32)s1 (configuration not stated)	9.94%	6.51 µM [rising, single point]	–

Some values from the entries so far:
COC(=O)CCC(=O)NC1CC(C)(C)Cc2c1cnn2-c1ccc(F)cc1 (configuration not stated) | cell number change: -31.8%
COC(=O)CN1C(=O)[C@H]2[C@@H](c3ccc(C)o3)N3C(=O)CN(CCO)C(=O)[C@@]3(Cc3ccccc3)[C@H]2C1=O | cell number change: -12.6%

The list continues.

Compound	cell number change	AC50 [1]	AC50 [2]
CC(C)Oc1nc(-c2ccccc2O)nc2ccccc12	1.76%	1.64 µM [rising, partial curve]	–
Cc1ccc(S(=O)(=O)N(C)C)cc1NC(=O)CN1C(=O)NC2(CCCCCCC2)C1=O	23.7%	8.2 µM [rising, partial curve]	–
COC(=O)C(Cc1ccccc1)NC(=O)c1cccc(S(=O)(=O)N(C)C)c1 (configuration not stated)	–	1.03 µM [rising, partial curve, poor fit]	1.84 µM [rising, partial curve, poor fit]
CSc1ccccc1OCc1cc(C(=O)NCCN2CCCC(O)C2)no1 (configuration not stated)	16.8%	6.51 µM [rising, partial curve]	–
COc1ccc(OC)c(NC(=O)CSc2nc(N3CCOCC3)nc(N3CCOCC3)n2)c1	37.7%	20.6 µM [rising, partial curve]	9.2 µM [rising, partial curve, poor fit]
CCCCOc1ccc(C(=O)C(CN2CCOCC2)c2ccccc2)cc1 (configuration not stated)	-34.6%	29.1 µM [falling, single point]	29.1 µM [falling, single point]
COc1cccc2c1OCC/C2=N\NC(=O)COc1ccccc1C	-36.3%	7.31 µM [falling, single point]	29.1 µM [falling, single point]
O=C(Nc1ccc(Cl)cc1)Nc1ccc2c(c1)N1CCN=C1S2	-14.7%	0.13 µM [rising, partial curve, poor fit]	–
CCCCc1cc(=O)oc2c(C)c(OCC(=O)NCCN3CCOCC3)ccc12	–	4.11 µM [falling, full curve]	–
CCCCn1c(N)c(N(CCOC)C(=O)C(C)Oc2ccc(Cl)cc2)c(=O)[nH]c1=O (configuration not stated)	-97.2%	29.1 µM [falling, single point]	29.1 µM [falling, single point]
O=[N+]([O-])c1ccccc1/C=N/n1c(C(F)(F)F)n[nH]c1=S	-45.9%	0.731 µM [falling, single point]	0.731 µM [falling, full curve]
CCCCn1c(N)c(N(CCOC)C(=O)COc2ccc(OCC)cc2)c(=O)[nH]c1=O	5.32%	–	–
NC(=O)CN(c1ccc(Oc2ccccc2)cc1)S(=O)(=O)c1ccccc1	-2.05%	–	–
C=CCOc1ccc(-c2nc3c(c(=O)[nH]c(=O)n3CCC)n2CCCC)cc1	–	4.11 µM [falling, full curve]	–
O=C(OCc1cn(-c2ccc(Cl)cc2)nn1)c1ccccc1	23.4%	–	–
N#CC1(NC(=O)CSc2nnc(Cc3ccccc3)o2)CCCCC1	-13.1%	20.6 µM [falling, partial curve, poor fit]	–
CCOc1ccccc1NC(=O)C(=O)N/N=C/c1ccc([N+](=O)[O-])cc1	34.9%	20.6 µM [rising, partial curve]	10.3 µM [rising, partial curve, poor fit]
CCOc1ccc(C(=O)NCC(=O)N2CCCCCCC2)cc1	-4.27%	0.00411 µM [rising, full curve, poor fit]	–
